The list shows a part of the results. Most entries show no effect beyond the scatter of the controls.

Amino acid sequences for entries named in this document (tags omitted). A change or cut given only in a name is not applied to a line headed by its entry.
UniProt Q9DBB9: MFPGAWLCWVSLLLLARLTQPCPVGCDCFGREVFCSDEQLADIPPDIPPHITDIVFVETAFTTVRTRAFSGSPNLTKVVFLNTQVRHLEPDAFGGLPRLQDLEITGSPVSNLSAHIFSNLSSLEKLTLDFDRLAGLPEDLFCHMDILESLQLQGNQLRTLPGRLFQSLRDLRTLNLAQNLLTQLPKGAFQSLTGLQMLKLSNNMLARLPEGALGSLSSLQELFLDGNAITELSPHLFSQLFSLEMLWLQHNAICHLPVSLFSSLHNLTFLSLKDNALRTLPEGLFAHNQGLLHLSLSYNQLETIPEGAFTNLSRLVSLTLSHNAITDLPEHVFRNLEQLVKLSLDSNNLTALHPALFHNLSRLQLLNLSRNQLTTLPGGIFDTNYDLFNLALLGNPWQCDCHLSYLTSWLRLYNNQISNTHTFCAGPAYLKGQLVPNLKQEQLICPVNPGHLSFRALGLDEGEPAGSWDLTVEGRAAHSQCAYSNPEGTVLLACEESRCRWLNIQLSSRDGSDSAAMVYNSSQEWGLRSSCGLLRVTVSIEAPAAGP
UniProt Q9D009: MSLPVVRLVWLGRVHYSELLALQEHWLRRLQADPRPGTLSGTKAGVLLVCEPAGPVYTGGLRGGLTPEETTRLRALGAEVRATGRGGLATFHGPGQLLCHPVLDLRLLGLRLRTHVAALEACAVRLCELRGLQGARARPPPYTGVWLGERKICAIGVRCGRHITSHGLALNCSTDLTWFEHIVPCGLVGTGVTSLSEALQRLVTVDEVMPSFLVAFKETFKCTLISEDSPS
UniProt Q9CZR3: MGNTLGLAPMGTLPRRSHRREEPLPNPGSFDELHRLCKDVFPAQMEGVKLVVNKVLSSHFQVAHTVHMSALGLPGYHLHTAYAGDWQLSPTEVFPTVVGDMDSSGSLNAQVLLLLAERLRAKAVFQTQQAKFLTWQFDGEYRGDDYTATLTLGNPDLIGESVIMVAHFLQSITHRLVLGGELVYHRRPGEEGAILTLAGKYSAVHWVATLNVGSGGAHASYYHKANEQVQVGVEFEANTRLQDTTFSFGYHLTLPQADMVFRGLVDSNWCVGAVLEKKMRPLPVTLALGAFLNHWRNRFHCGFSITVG
UniProt Q9D0E1: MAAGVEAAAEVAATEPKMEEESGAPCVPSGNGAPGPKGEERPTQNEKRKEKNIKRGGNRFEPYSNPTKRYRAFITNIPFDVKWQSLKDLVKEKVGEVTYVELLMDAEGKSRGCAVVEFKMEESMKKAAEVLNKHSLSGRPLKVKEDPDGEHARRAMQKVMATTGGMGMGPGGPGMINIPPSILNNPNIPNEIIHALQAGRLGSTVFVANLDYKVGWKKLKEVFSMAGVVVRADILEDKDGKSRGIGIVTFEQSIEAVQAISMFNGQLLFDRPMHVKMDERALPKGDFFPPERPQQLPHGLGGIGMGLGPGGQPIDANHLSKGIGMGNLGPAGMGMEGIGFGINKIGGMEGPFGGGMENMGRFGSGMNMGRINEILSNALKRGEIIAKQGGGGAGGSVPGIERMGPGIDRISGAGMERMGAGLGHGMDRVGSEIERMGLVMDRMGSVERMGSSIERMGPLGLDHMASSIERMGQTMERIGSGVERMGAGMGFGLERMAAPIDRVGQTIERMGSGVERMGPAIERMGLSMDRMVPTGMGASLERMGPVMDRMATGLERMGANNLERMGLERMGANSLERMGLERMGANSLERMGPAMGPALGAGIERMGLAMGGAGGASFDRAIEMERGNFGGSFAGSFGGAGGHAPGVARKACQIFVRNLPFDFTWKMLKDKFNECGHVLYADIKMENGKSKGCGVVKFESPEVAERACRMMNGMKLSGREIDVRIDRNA
UniProt Q9D2C7, whole entry: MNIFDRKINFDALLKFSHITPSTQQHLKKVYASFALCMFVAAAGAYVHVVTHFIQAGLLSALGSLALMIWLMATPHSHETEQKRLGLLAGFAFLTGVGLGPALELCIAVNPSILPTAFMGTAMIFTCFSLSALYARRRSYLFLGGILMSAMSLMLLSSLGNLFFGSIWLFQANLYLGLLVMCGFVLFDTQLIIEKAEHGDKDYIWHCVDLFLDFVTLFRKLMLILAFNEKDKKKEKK
UniProt Q9D8W7: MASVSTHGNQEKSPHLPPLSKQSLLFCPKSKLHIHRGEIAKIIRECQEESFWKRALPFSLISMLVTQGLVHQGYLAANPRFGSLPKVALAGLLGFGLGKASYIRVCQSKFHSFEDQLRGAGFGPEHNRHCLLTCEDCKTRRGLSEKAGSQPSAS
UniProt Q9D1G1: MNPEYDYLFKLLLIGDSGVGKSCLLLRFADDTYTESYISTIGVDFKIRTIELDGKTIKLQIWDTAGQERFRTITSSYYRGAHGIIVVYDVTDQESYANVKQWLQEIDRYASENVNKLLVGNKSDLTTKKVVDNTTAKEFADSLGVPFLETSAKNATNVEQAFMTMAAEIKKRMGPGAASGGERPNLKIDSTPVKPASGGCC
UniProt Q9D6U8: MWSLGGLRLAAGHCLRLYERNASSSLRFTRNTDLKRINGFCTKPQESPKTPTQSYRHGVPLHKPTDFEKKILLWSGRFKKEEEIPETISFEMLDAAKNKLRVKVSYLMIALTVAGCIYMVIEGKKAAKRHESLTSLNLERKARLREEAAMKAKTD
UniProt Q9DBY1, whole entry: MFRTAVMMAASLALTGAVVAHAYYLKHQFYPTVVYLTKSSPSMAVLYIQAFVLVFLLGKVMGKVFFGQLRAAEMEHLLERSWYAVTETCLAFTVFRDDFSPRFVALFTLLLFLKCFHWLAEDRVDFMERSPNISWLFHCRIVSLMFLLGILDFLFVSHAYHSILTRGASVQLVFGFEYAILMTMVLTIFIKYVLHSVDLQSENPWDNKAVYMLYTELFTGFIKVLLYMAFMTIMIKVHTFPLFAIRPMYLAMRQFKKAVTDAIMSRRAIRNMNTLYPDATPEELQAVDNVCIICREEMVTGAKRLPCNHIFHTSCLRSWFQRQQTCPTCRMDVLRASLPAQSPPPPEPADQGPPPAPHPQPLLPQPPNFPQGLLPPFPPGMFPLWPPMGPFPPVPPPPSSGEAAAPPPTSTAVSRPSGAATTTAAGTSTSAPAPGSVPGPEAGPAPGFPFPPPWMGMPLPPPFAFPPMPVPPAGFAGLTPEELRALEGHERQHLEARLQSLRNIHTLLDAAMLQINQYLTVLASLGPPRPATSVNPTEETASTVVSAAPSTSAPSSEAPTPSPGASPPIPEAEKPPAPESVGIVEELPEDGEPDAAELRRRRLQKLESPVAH
UniProt Q9D9V3: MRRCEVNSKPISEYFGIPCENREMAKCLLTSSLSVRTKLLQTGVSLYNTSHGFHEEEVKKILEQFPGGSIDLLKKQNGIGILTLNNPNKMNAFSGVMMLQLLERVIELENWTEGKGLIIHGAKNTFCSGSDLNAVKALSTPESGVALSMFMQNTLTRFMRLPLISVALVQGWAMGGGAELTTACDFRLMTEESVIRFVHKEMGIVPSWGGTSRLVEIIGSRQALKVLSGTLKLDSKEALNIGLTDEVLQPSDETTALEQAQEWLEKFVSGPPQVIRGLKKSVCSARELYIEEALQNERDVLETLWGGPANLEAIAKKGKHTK
UniProt Q9D517: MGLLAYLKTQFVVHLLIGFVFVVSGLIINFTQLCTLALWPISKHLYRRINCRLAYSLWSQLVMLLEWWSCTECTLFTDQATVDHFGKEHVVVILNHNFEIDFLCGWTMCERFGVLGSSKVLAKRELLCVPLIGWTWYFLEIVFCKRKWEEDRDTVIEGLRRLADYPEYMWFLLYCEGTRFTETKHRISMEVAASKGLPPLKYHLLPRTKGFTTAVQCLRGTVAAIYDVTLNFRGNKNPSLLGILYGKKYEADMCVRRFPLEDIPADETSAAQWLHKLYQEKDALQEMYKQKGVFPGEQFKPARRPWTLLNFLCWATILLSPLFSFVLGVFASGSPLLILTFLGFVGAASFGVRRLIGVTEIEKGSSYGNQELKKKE
UniProt Q9CYR6: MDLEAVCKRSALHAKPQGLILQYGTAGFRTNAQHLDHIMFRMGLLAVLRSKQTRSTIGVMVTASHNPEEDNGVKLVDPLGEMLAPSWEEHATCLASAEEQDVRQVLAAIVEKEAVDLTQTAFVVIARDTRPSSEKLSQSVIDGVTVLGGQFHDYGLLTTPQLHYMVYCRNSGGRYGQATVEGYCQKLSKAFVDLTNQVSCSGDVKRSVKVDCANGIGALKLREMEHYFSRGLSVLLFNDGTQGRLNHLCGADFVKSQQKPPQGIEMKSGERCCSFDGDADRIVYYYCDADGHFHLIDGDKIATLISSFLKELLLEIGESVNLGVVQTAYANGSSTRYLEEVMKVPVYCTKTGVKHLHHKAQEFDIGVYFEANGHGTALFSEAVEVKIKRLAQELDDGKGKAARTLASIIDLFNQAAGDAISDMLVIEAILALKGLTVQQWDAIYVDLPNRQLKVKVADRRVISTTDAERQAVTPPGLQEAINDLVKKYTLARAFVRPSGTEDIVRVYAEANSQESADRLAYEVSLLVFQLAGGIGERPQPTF
UniProt Q9D379: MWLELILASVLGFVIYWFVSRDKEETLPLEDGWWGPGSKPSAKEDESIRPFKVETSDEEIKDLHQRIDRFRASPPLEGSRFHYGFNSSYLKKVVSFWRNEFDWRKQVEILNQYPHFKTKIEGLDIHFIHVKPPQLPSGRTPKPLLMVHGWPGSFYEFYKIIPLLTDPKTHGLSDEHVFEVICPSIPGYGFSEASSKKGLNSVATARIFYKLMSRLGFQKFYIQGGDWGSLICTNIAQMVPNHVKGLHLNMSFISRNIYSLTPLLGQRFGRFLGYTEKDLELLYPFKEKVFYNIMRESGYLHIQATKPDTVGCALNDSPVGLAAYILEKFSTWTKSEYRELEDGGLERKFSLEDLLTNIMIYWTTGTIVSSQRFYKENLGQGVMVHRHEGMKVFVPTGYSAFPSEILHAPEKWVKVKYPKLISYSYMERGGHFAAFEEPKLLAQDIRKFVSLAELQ
UniProt Q9D8C4: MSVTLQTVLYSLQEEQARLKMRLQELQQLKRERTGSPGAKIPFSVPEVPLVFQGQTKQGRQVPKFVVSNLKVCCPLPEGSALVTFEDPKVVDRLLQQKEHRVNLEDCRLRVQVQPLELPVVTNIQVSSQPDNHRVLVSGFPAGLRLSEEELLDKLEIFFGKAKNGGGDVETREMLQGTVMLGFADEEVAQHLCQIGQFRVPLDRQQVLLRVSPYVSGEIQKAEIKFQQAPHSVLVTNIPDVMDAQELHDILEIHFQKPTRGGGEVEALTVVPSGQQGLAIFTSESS
UniProt Q9CY97: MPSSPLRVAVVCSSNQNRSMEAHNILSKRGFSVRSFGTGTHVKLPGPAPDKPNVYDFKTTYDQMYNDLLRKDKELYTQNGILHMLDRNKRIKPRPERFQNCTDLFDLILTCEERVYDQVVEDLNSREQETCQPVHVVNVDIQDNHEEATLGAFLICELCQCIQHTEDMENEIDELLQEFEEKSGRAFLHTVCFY
UniProt Q9DBP5: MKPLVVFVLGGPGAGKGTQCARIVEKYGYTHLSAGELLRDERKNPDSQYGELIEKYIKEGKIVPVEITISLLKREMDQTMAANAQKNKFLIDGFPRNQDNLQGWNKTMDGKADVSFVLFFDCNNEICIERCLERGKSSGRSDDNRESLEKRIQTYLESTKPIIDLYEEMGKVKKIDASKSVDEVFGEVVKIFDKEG
UniProt Q9CYF5, whole entry, looked up: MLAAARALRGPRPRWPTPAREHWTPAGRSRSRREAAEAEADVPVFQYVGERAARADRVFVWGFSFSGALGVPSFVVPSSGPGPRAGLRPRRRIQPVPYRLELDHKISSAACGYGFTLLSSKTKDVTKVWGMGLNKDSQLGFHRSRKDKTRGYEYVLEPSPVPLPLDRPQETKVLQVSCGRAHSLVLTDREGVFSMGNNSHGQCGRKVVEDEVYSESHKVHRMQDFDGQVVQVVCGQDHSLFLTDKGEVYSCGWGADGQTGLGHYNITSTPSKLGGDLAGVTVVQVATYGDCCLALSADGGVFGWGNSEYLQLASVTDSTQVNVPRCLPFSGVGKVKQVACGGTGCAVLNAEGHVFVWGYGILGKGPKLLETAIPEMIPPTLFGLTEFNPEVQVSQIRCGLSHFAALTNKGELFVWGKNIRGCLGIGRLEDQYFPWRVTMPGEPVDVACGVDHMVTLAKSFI
UniProt Q9D8U2: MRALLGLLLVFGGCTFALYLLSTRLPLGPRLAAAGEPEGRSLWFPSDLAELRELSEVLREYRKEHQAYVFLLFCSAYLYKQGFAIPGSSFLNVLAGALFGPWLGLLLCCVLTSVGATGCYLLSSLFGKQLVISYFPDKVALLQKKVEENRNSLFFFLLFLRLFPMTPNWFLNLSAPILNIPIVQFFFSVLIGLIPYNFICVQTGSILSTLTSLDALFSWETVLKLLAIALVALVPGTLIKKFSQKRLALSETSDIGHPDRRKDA
UniProt Q9D937: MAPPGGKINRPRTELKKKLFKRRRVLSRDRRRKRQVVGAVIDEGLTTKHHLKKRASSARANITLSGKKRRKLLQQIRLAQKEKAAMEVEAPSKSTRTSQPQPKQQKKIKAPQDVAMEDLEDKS
UniProt Q9CZH3: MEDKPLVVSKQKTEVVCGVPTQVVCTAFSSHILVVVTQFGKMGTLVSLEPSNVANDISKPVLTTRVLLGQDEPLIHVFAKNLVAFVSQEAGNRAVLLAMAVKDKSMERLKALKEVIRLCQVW

Compound in the test: CN[C@@H]1C[C@H]2O[C@@](C)([C@@H]1OC)n1c3ccccc3c3c4c(c5c6ccccc6n2c5c31)C(=O)NC4 [staurosporine]
As to the kind of experiment: log2 fold change of pooled soluble protein (PISA), ligand vs vehicle (log2 ratio); higher = more thermally stabilized. Conditions: ligand concentration: 20 uM; assay format: PISA pool 52.9/55.5/58.6 C.
UniProt Q9DBB9: the “log2 fold change of pooled soluble protein” value (“log2 fold change” for short) was -0.179. In the case of UniProt Q9D009, the “log2 fold change” value was -0.266.

As to UniProt Q9D6S7, the “log2 fold change” value was -0.0343.

Consider UniProt Q9DAM5, for which the “log2 fold change” value was -0.0715. The same measure for UniProt Q9CZR3: 0.0161. Take UniProt Q9D0E1: the “log2 fold change” value was found to be 0.109. In the case of UniProt Q9D883, the “log2 fold change” value was -0.0125.

As to UniProt Q9D6Y7, the “log2 fold change” value was -0.0137.

Take UniProt Q9D2C7: the “log2 fold change” value is 0.138. UniProt Q9CZS1: the “log2 fold change” value is -0.132. UniProt Q9CZA6: the “log2 fold change” value worked out at 0.115. Consider UniProt Q9D8W7, for which the “log2 fold change” value was -0.0572. For UniProt Q9DAU1, the “log2 fold change” value worked out at 0.0223. The same measure for UniProt Q9D1G1: 0.244; for UniProt Q9D0M0: 0.22. As to UniProt Q9D6U8, the “log2 fold change” value is 0.0969. Take UniProt Q9D939: the “log2 fold change” value came out at 0.199. The same measure for UniProt Q9DBY1: -0.0249.

For UniProt Q9DBL1, the “log2 fold change” value turned out to be 0.0848. For the target UniProt Q9D9V3, the “log2 fold change” value was found to be 0.0363. Regarding UniProt Q9D898, the “log2 fold change” value is -0.154. Regarding UniProt Q9D902, the “log2 fold change” value was -0.215.

With UniProt Q9DBX3, the “log2 fold change” value was -0.012.

For UniProt Q9D051, the “log2 fold change” value is -0.166. The same measure for UniProt Q9D517: 0.0514.

Turning to UniProt Q9CYR6, the “log2 fold change” value is -0.106. On to UniProt Q9D379, for which the “log2 fold change” value is -0.0524. With UniProt Q9D8C4, the “log2 fold change” value is -0.0508. UniProt Q9CY97: the “log2 fold change” value was found to be 0.0842.

Take UniProt Q9CYH2: the “log2 fold change” value stood at 0.166. Regarding UniProt Q9DBP5, the “log2 fold change” value was -0.0017.

On to UniProt Q9D338, for which the “log2 fold change” value is 0.108.

UniProt Q9CYF5: the “log2 fold change” value worked out at 0.00137. As for UniProt Q9D1N2, the “log2 fold change” value was found to be 0.0735. For UniProt Q9D8U2, the “log2 fold change” value was determined as 0.0776.

On to UniProt Q9D937, for which the “log2 fold change” value was -0.308. As for UniProt Q9CZH3, the “log2 fold change” value is -0.125.

The values are drawn from the supplement of paper PMC12819154, “High-throughput peptide-centric local stability assay extends protein–ligand identification to membrane proteins, tissues and bacteria” (Nature Structural & Molecular Biology, 2025).
